Source: PubChem BioAssay AID493014 (National Center for Advancing Translational Sciences (NCATS), 2011)
About 170 (0.05%) of roughly 340,000 compounds were called active. The shares of active, inactive and inconclusive entries below differ from those in the screen. The call rests on the fitted dose curve; in most records, active means well fitted inhibition curve with a large enough effect in the signal ratio, with a control signal flat (not every such curve was filed as active); inconclusive means small, poorly fitted or top-dose-only effect, or effect the other way, or a change in a side signal; inactive means flat fitted curve, though single readings scatter; the % refers to the signal ratio. Where the call is inconclusive, the potency comes from a doubtful curve fit.

Assay: qHTS Assay to Find Inhibitors of Chronic Active B-Cell Receptor Signaling;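 on activity change, negative = inhibition: plate controls were basal doxycycline-induced cells for no effect and cells given 10 µM MG132 for full effect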
Conditions: ABC-DLBCL IkBa-CBG/CBR reporter, luminescence ratio (green luciferase fused to IkBa over red control in TMD8 lymphoma cells), 4 h; activity change, negative = inhibition: at 46.1 µM (top of the series) unless noted
Method in brief: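 Cell line TMD8 (human ABC DLBCL), stably expressing tet-inducible CBG68-IkBa fusion and CBR; IMDM/0.5% FBS; cpd up to 46 uM; dox induction, 4 h, 37C/5% CO2; dual luminescence; green/red ratio; MG132 control.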
Potency means the concentration at half of the fitted maximal effect.

Row | SMILES | activity change, negative = inhibition | Potency
1 | CCCCNC(=O)CN1CCN(Cc2ccc3cc(OC)ccc3c2)CC1 | inconclusive: 0.102% | 
2 | O=C(Nc1nnc(-c2ccc3c(c2)CCCC3)o1)c1c(F)cccc1F | inconclusive: -2.42% | 
3 | Cc1cc2cc3c(cc2nc1SCC(=O)N1CCN(C(=O)c2ccco2)CC1)OCO3 | inconclusive: -1.48% | 
4 | C=CCSc1nn2c(=O)c3ccccc3nc2s1 | inconclusive: -7.95% | 
5 | Cn1cc(SCC(=O)Nc2ccc3c(c2)OCCO3)c2ccccc21 | inactive: -9.05% | 
6 | O=C(c1ccc(Br)o1)N1CCN(CCOc2ccccc2)CC1 | inconclusive: 0.0304% | 
7 | Cc1ccc(-c2nc3cccnc3o2)cc1NC(=O)COc1ccc(C(C)(C)C)cc1 |  | inconclusive: 29.1 µM [falling, single point]
8 | CCOc1ccc(N(C)Cc2cc(=O)oc3ccc(OC)cc23)cc1 | inconclusive: -0.281% | 
9 | COC(=O)C(O)(CC(=O)Nc1ccc(C)c(F)c1)C(F)(F)F (stereo not given) | inconclusive: 3.18% | 
10 | N#Cc1cc(NCC2CCCO2)c([N+](=O)[O-])cc1C#N (stereo not given) | inconclusive: 5.12% | 
11 | COc1ccc(NC(=O)/C=C/c2ccccc2)cn1 | inconclusive: -19.6% | 
12 | CCCCCCSc1nsc(NC(C)=O)n1 | inconclusive: -0.614% | 
13 | CCOC(=O)C1=C(N)OC2=C(C(=O)CCC2)C1c1cccnc1 (stereo not given) | inconclusive: 4.09% | 
14 | CC(C)=CC(=O)OCC(=O)Nc1ccccc1Cl | inactive: -10.3% | 
15 | CCOc1ccc(-n2c(-c3ccccc3)c[nH]c2=S)cc1 | inactive: 12.9% | 
16 | CCN(CC)CCNC(=O)c1ccc(Cl)c(S(=O)(=O)N2CCCCCC2)c1 | inconclusive: 27.2% | 
17 | CC(=O)Cc1nsc(NC(=O)c2ccc(COc3ccccc3C)o2)n1 | inconclusive: 7.6% | 
18 | COc1ccc(-c2cc3ncc(-c4ccccc4)c(N)n3n2)cc1 |  | inconclusive: 3.55 µM [falling, partial curve]
19 | COc1ccccc1NC(=O)c1ccc(NC(=O)CSc2ncn[nH]2)cc1 | inconclusive: 0.693% | 
20 | COc1ccccc1CNC(=O)CN(CCc1ccccc1)S(C)(=O)=O | inconclusive: 0.961% | 
21 | OC1CCN(Cc2nc(Cc3ccccc3Cl)no2)CC1 | inactive: 6.92% | 
22 | CCOC(=O)N1CCC(NC(=O)CCC(=O)N2CC(C)Oc3ccc(Cl)cc32)CC1 (stereo not given) | inconclusive: 9.85% | 
23 | CC(=O)Nc1ccc(SCC(=O)c2ccc(Br)s2)cc1 | inactive: -7.3% | 
24 | CC(C)c1ccc(NC(=O)CSC(C)c2nc3ccccc3c(=O)[nH]2)cc1 (stereo not given) | inconclusive: 1.73% | 
25 | O=c1ccc(-c2ccccc2)nn1Cc1ccc(F)cc1 | inconclusive: 2.73% | 
26 | O=C(O)CCn1c(SCc2cccc3ccccc23)nc2ccccc21 |  | inconclusive: 29.1 µM [rising, single point]
27 | CC(=O)Nc1ccc(OCc2cccc3ccccc23)cc1 |  | inconclusive: 12.6 µM [falling, partial curve, poor fit]

By substructure: the entries above with bromine (2)
Row | SMILES | activity change, negative = inhibition | Potency
6 | O=C(c1ccc(Br)o1)N1CCN(CCOc2ccccc2)CC1 | inconclusive: 0.0304% | 
23 | CC(=O)Nc1ccc(SCC(=O)c2ccc(Br)s2)cc1 | inactive: -7.3% | 

Further structures follow.

Row | SMILES | activity change, negative = inhibition | Potency
28 | Cc1ccc(Cl)cc1N1CCN(C(=O)c2ccccc2SCC(=O)N2CCCC2)CC1 | inconclusive: 3.84% | 
29 | CCCCn1c(N)c(C(=S)NC(=O)CC(C)(C)C)c(=O)n(C)c1=O | inconclusive: 11.2% | 
30 | CCOC(=O)Cc1csc(NC(=O)COc2cc(C)cc(C)c2)n1 |  | inconclusive: 11.2 µM [falling, partial curve]
31 | Cc1ccc(C(=O)OCc2cn3ccccc3n2)cc1 | inconclusive: 15.4% | 
32 | O=C(OCC(=O)N1CCCC1)c1ccc(S(=O)(=O)Nc2ccccc2)cc1 | inactive: 0.0088% | 
33 | COc1ccc(/C=N/NC(=O)c2ccccc2NC(=O)c2ccco2)c(OC)c1 | inconclusive: -2.43% | 
34 | CC(=O)Nc1ccc(S(=O)(=O)Nc2nc3ccccc3nc2Nc2cccc(O)c2)cc1 |  | inconclusive: 17.8 µM [falling, partial curve, poor fit]
35 | CCn1c(SCC(=O)c2ccccc2)nc2ccccc2c1=O | inconclusive: 13.4% | 
36 | COc1ccccc1C(=O)Nc1nnc(-c2ccc3c(c2)CCCC3)o1 |  | inconclusive: 0.282 µM [falling, full curve, poor fit]
37 | CC(C)Cn1c(-c2cc([N+](=O)[O-])ccc2Cl)nc2c1c(=O)[nH]c(=O)n2Cc1ccccc1 |  | inconclusive: 32.6 µM [falling, single point]
38 | COCCNC(=O)c1c[nH]c2ccc(OC)cc2c1=O | inconclusive: -7.87% | 
39 | COc1cc(/C=N/NC(=O)c2cc(-c3ccccc3)sc2N)cc(OC)c1OC | inconclusive: 5.37% | 
40 | COC(=O)/C=C/COc1ccccc1[N+](=O)[O-] | inconclusive: -2.74% | 
41 | COc1ccc(C2CC(=O)C(CS(=O)(=O)c3ccccc3)C(=O)C2)cc1 (stereo not given) | inactive: 27.3% | 
42 | COc1cc(C(C(=O)NC2CCCCC2)N(C(=O)c2snc(C(N)=O)c2N)c2ccc(C)cc2)ccc1O (stereo not given) |  | inconclusive: 35.5 µM [falling, single point]
43 | O=C(OCC(=O)N1CCc2ccccc21)[C@@H]1CC(O)CN1S(=O)(=O)c1ccccc1[N+](=O)[O-] (stereo not given in full) | inconclusive: -2.06% | 
44 | CCN(CC)c1ccc(/C=C/C(=O)c2ccc(Br)cc2)cc1 | inactive: 12.5% | 
45 | CCOc1ccc(-c2cc(NC(=O)c3c(F)cccc3F)c(C(=O)O)s2)cc1 | inactive: 7.54% | 
46 | Cc1noc(C)c1CSCC(=O)Nc1nc(-c2ccc(F)c(F)c2)cs1 | inconclusive: 14.9% | 
47 | C=CCNC(=O)c1nc2ccccc2s1 |  | inconclusive: 18.4 µM [falling, partial curve]
48 | O=C(c1ccccc1)c1cnc(Nc2ccccc2Cl)s1 |  | inconclusive: 35.5 µM [rising, single point]
49 | Cc1ccc(S(=O)(=O)N(C)C)cc1NC(=O)COC(=O)c1ccc2c(c1)NC(=O)CS2 |  | inconclusive: 3.55 µM [falling, partial curve]
50 | Cc1cc(SCC(=O)c2ccc(Cl)cc2)nc(=O)[nH]1 | inactive: 5.32% | 
51 | CC(C)(C)C(=O)Nc1cc(C(F)(F)F)ccc1N1CCOCC1 | inconclusive: -8.3% | 
52 | O=C(Nc1ncccc1O)c1ccc(C(=O)c2ccccc2)cc1 |  | inconclusive: 16.4 µM [falling, partial curve]
53 | O=C(O)CCC(=O)Nc1ccc2c(c1)Cc1cc(NC(=O)CCC(=O)O)ccc1-2 |  | inconclusive: 31.6 µM [falling, partial curve]
54 | C=CCn1c(=N)n(CC(=O)c2ccccc2)c2ccccc21 | inconclusive: 6.42% | 

Copied from the list.
CCOc1ccc(-c2cc(NC(=O)c3c(F)cccc3F)c(C(=O)O)s2)cc1 | activity change, negative = inhibition: inactive: 7.54%
Cc1cc2cc3c(cc2nc1SCC(=O)N1CCN(C(=O)c2ccco2)CC1)OCO3 | activity change, negative = inhibition: inconclusive: -1.48%
CCN(CC)c1ccc(/C=C/C(=O)c2ccc(Br)cc2)cc1 | activity change, negative = inhibition: inactive: 12.5%
COC(=O)/C=C/COc1ccccc1[N+](=O)[O-] | activity change, negative = inhibition: inconclusive: -2.74%

(more compounds)

Row | SMILES | activity change, negative = inhibition | Potency
55 | Cc1cc(C)cc(NC(=S)N2CCN(c3ncc(C(F)(F)F)cc3Cl)CC2)c1 | inconclusive: 10.8% | 
56 | Cc1ccc(NC(=O)c2ccccc2NS(=O)(=O)c2ccc(Cl)s2)cc1 | inconclusive: 6.38% | 
57 | Cc1ccccc1C(=O)OCCN(C)Cc1ccccc1 | inconclusive: 9.12% | 
58 | CCC(=O)N1N=C(c2cccc(NS(C)(=O)=O)c2)CC1c1cccs1 (stereo not given) | inconclusive: -20% | 
59 | CSc1cccc(NC(=O)Nc2nc3c(C)cccc3s2)c1 | inconclusive: 0.0787% | 
60 | Nc1c(Cl)cnc(C(Cl)(Cl)Cl)c1Cl | inconclusive: -0.527% | 
61 | NC(=S)Nc1cccc2[nH]ccc12 |  | inconclusive: 31.6 µM [falling, single point]
62 | CCc1cccc(NC(=O)CCC(=O)O)c1 |  | inconclusive: 0.326 µM [rising, full curve, poor fit]
63 | CCN(CC(=O)Nc1ccc(OC)cc1)C(=O)CSCC(=O)Nc1ccc(C)cc1 | inconclusive: 8.02% | 
64 | CCN(C(=O)COC(=O)c1ccc2c(=O)n3c(nc2c1)CCC3)C1CCS(=O)(=O)C1 (stereo not given) |  | inconclusive: 11.2 µM [falling, partial curve, poor fit]
65 | COc1ccc2nc(/C(C#N)=C\c3ccc(Oc4ccc([N+](=O)[O-])cn4)cc3)[nH]c2c1 | inconclusive: 6.14% | 
66 | Cc1ccc(C(=O)Nc2ccccc2C(=O)NC(C(=O)O)C(C)C)cc1 (stereo not given) |  | inconclusive: 12.6 µM [falling, partial curve]
67 | CS(=O)(=O)Nc1ccc(C(=O)NCCSCc2c(F)cccc2Cl)cc1 |  | inconclusive: 22.4 µM [falling, partial curve]
68 | COCCCNC(=O)Cn1nnc(-c2ccccc2NC(=O)c2ccc(F)cc2)n1 | inconclusive: -5.14% | 
69 | OC1(c2cccc(C(F)(F)F)c2)CCN(c2ncnc3c2[nH]c2ccccc23)CC1 | inactive: 2.27% | 
70 | O=C(OCC(=O)c1ccc[nH]1)c1ccc(Cl)c(Cl)c1 |  | inconclusive: 29.1 µM [cytotoxic, single point]
71 | CCOc1ccc(NC(=O)c2cc(S(=O)(=O)N3CCOCC3)ccc2F)cc1 | inconclusive: -31.5% | 
72 | CC1Cc2ccccc2N1Cc1cc(=O)c(OCC(=O)Nc2ccccc2)co1 (stereo not given) | inconclusive: 18.8% | 
73 | O=C(NC(=S)Nc1ccccc1N1CCOCC1)c1ccccc1F |  | inconclusive: 5.62 µM [falling, partial curve, poor fit]
74 | CC(C)C(c1nnnn1Cc1ccccc1)N(CCCO)Cc1cc2cc3c(cc2[nH]c1=O)OCO3 (stereo not given) |  | inconclusive: 25.1 µM [falling, partial curve, poor fit]
75 | CC(C)c1ccc(OCC(=O)NC2=NCCS2)cc1 | inconclusive: 12.5% | 
76 | O=C(c1cccnc1)N1CCN(c2ccc([N+](=O)[O-])cc2Cl)CC1 |  | inconclusive: 25.9 µM [falling, partial curve, poor fit]
77 | COc1cccc(C(=O)Nc2cccc(-c3nc4ncccc4o3)c2C)c1 | inconclusive: 9.27% | 
78 | CC1CCC2CCCCC2N1C(=O)c1cc([N+](=O)[O-])cc([N+](=O)[O-])c1 (stereo not given) | inconclusive: -17.1% | 
79 | COCCn1c(C)cc(/C=C2/NC(=O)N(Cc3ccc(C)cc3)C2=O)c1C | inactive: 5.72% | 
80 | CCCCCCCCCn1c2c(c(=N)c3c1CCC3)CCC2 |  | inconclusive: 0.651 µM [falling, partial curve, poor fit]
